According to ChEMBL document CHEMBL1157379, “Transcriptional response of Candida parapsilosis following exposure to farnesol” (2007):
Further values from the same series stand in other lists.

What was measured:
Assay type in all cases: functional
Candida parapsilosis [1] = test: Increase in NDE1 gene expression in Candida parapsilosis CLIB214 at 50 uM after 2 hrs by microarray based transcriptional profiling relative to control
Candida parapsilosis [2] = test: Increase in CGD gene ortholog accession number orf19.444 expression in Candida parapsilosis CLIB214 at 50 uM after 2 hrs by microarray based transcriptional profiling relative to control
Candida parapsilosis [3] = test: Increase in CGD gene ortholog accession number orf19.5550 expression in Candida parapsilosis CLIB214 at 50 uM after 2 hrs by microarray based transcriptional profiling relative to control
Candida parapsilosis [4] = test: Decrease in CGD gene ortholog accession number orf19.1943 expression in Candida parapsilosis CLIB214 at 50 uM after 2 hrs by microarray based transcriptional profiling relative to control
Candida parapsilosis [5] = test: Decrease in CGD gene ortholog accession number orf19.21 expression in Candida parapsilosis CLIB214 at 50 uM after 2 hrs by microarray based transcriptional profiling relative to control
Candida parapsilosis [6] = test: Decrease in CGD gene ortholog accession number orf19.136 expression in Candida parapsilosis CLIB214 at 50 uM after 2 hrs by microarray based transcriptional profiling relative to control
Candida parapsilosis [7] = test: Decrease in CGD gene ortholog accession number orf19.4157 expression in Candida parapsilosis CLIB214 at 50 uM after 2 hrs by microarray based transcriptional profiling relative to control
Candida parapsilosis [8] = test: Decrease in SNQ2 gene expression in Candida parapsilosis CLIB214 at 50 uM after 2 hrs by microarray based transcriptional profiling relative to control
Candida parapsilosis [9] = test: Decrease in OPT5 gene expression in Candida parapsilosis CLIB214 at 50 uM after 2 hrs by microarray based transcriptional profiling relative to control
Candida parapsilosis [10] = test: Decrease in CGD gene ortholog accession number orf19.3446 expression in Candida parapsilosis CLIB214 at 50 uM after 2 hrs by microarray based transcriptional profiling relative to control
Candida parapsilosis [11] = test: Increase in CGD gene ortholog accession number orf19.6766 expression in Candida parapsilosis CLIB214 at 50 uM after 2 hrs by microarray based transcriptional profiling relative to control
Candida parapsilosis [12] = test: Increase in CGD gene ortholog accession number orf19.345 expression in Candida parapsilosis CLIB214 at 50 uM after 2 hrs by microarray based transcriptional profiling relative to control
Candida parapsilosis [13] = test: Increase in CRZ2 gene expression in Candida parapsilosis CLIB214 at 50 uM after 2 hrs by microarray based transcriptional profiling relative to control
Candida parapsilosis [14] = test: Increase in CGD gene ortholog accession number orf19.1230 expression in Candida parapsilosis CLIB214 at 50 uM after 2 hrs by microarray based transcriptional profiling relative to control
Candida parapsilosis [15] = test: Increase in CGD gene ortholog accession number orf19.308 expression in Candida parapsilosis CLIB214 at 50 uM after 2 hrs by microarray based transcriptional profiling relative to control
Candida parapsilosis [16] = test: Decrease in CGD gene ortholog accession number orf19.1482 expression in Candida parapsilosis CLIB214 at 50 uM after 2 hrs by microarray based transcriptional profiling relative to control
Candida parapsilosis [17] = test: Decrease in GCV2 gene expression in Candida parapsilosis CLIB214 at 50 uM after 2 hrs by microarray based transcriptional profiling relative to control
Candida parapsilosis [18] = test: Decrease in RPN3 gene expression in Candida parapsilosis CLIB214 at 50 uM after 2 hrs by microarray based transcriptional profiling relative to control
Candida parapsilosis [19] = test: Decrease in ARR3 gene expression in Candida parapsilosis CLIB214 at 50 uM after 2 hrs by microarray based transcriptional profiling relative to control
Candida parapsilosis [20] = test: Increase in GenBank accession number NP_943632.1 expression in Candida parapsilosis CLIB214 at 50 uM after 2 hrs by microarray based transcriptional profiling relative to control
Candida parapsilosis [21] = test: Increase in CGD gene ortholog accession number orf19.4371 expression in Candida parapsilosis CLIB214 at 50 uM after 2 hrs by microarray based transcriptional profiling relative to control
Candida parapsilosis [22] = test: Increase in TUF1 gene expression in Candida parapsilosis CLIB214 at 50 uM after 2 hrs by microarray based transcriptional profiling relative to control
Candida parapsilosis [23] = test: Increase in CGD gene ortholog accession number orf19.6902 expression in Candida parapsilosis CLIB214 at 50 uM after 2 hrs by microarray based transcriptional profiling relative to control
Candida parapsilosis [24] = test: Decrease in CGD gene ortholog accession number orf19.2049 expression in Candida parapsilosis CLIB214 at 50 uM after 2 hrs by microarray based transcriptional profiling relative to control
Candida parapsilosis [25] = test: Decrease in CGD gene ortholog accession number orf19.5919 expression in Candida parapsilosis CLIB214 at 50 uM after 2 hrs by microarray based transcriptional profiling relative to control
Candida parapsilosis [26] = test: Increase in CGD gene ortholog accession number orf19.4621 expression in Candida parapsilosis CLIB214 at 50 uM after 2 hrs by microarray based transcriptional profiling relative to control
Candida parapsilosis [27] = test: Increase in CGD gene ortholog accession number orf19.7048 expression in Candida parapsilosis CLIB214 at 50 uM after 2 hrs by microarray based transcriptional profiling relative to control
Candida parapsilosis [28] = test: Increase in MRP20 gene expression in Candida parapsilosis CLIB214 at 50 uM after 2 hrs by microarray based transcriptional profiling relative to control
Candida parapsilosis [29] = test: Increase in CGD gene ortholog accession number orf19.1222 expression in Candida parapsilosis CLIB214 at 50 uM after 2 hrs by microarray based transcriptional profiling relative to control
Candida parapsilosis [30] = test: Increase in NOC2 gene expression in Candida parapsilosis CLIB214 at 50 uM after 2 hrs by microarray based transcriptional profiling relative to control
Candida parapsilosis [31] = test: Decrease in CGD gene ortholog accession number orf19.7065 expression in Candida parapsilosis CLIB214 at 50 uM after 2 hrs by microarray based transcriptional profiling relative to control
Candida parapsilosis [32] = test: Decrease in CGD gene ortholog accession number orf19.1070 expression in Candida parapsilosis CLIB214 at 50 uM after 2 hrs by microarray based transcriptional profiling relative to control
Candida parapsilosis [33] = test: Decrease in CGD gene ortholog accession number orf19.1531 expression in Candida parapsilosis CLIB214 at 50 uM after 2 hrs by microarray based transcriptional profiling relative to control
Candida parapsilosis [34] = test: Decrease in CGD gene ortholog accession number orf19.2659 expression in Candida parapsilosis CLIB214 at 50 uM after 2 hrs by microarray based transcriptional profiling relative to control
Candida parapsilosis [35] = test: Increase in GenBank accession number XP_460627.1 expression in Candida parapsilosis CLIB214 at 50 uM after 2 hrs by microarray based transcriptional profiling relative to control
Candida parapsilosis [36] = test: Increase in NCP1 gene expression in Candida parapsilosis CLIB214 at 50 uM after 2 hrs by microarray based transcriptional profiling relative to control

CC(C)=CCC/C(C)=C/CC/C(C)=C/CO [FARNESOL]
fold change (FC) (Candida parapsilosis [1]): 2.17
fold change (FC) (Candida parapsilosis [2]): 2.03
fold change (FC) (Candida parapsilosis [3]): 2
fold change (FC) (Candida parapsilosis [4]): 2.09
fold change (FC) (Candida parapsilosis [5]): 1.95
fold change (FC) (Candida parapsilosis [6]): 1.99
fold change (FC) (Candida parapsilosis [7]): 2.2
fold change (FC) (Candida parapsilosis [8]): 2.34
fold change (FC) (Candida parapsilosis [9]): 2.04
fold change (FC) (Candida parapsilosis [10]): 2.07
fold change (FC) (Candida parapsilosis [11]): 1.76
fold change (FC) (Candida parapsilosis [12]): 1.71
fold change (FC) (Candida parapsilosis [13]): 1.56
fold change (FC) (Candida parapsilosis [14]): 1.52
fold change (FC) (Candida parapsilosis [15]): 1.51
fold change (FC) (Candida parapsilosis [16]): 1.5
fold change (FC) (Candida parapsilosis [17]): 1.61
fold change (FC) (Candida parapsilosis [18]): 1.61
fold change (FC) (Candida parapsilosis [19]): 1.62
fold change (FC) (Candida parapsilosis [20]): 2.98
fold change (FC) (Candida parapsilosis [21]): 2.84
fold change (FC) (Candida parapsilosis [22]): 3.88
fold change (FC) (Candida parapsilosis [23]): 1.78
fold change (FC) (Candida parapsilosis [24]): 1.92
fold change (FC) (Candida parapsilosis [25]): 1.93
fold change (FC) (Candida parapsilosis [26]): 1.65
fold change (FC) (Candida parapsilosis [27]): 1.64
fold change (FC) (Candida parapsilosis [28]): 1.63
fold change (FC) (Candida parapsilosis [29]): 1.68
fold change (FC) (Candida parapsilosis [30]): 1.67
fold change (FC) (Candida parapsilosis [31]): 2.41
fold change (FC) (Candida parapsilosis [32]): 2.48
fold change (FC) (Candida parapsilosis [33]): 1.72
fold change (FC) (Candida parapsilosis [34]): 4.31
fold change (FC) (Candida parapsilosis [35]): 2.54
fold change (FC) (Candida parapsilosis [36]): 1.61
